Source: publication PMC11050213

Columns and labels:
[1] = biological target: T1, Arabidopsis ELP6 (Arabidopsis thaliana) (UniProt Q8L9Y2); assay: two-hybrid; GAL4-based ProQuest system, yeast MaV203; bait in pDEST32 (BD), prey in pDEST22 (AD); growth on SD/-Leu/-Trp/-His with 10 mM 3-AT
T1 sequence: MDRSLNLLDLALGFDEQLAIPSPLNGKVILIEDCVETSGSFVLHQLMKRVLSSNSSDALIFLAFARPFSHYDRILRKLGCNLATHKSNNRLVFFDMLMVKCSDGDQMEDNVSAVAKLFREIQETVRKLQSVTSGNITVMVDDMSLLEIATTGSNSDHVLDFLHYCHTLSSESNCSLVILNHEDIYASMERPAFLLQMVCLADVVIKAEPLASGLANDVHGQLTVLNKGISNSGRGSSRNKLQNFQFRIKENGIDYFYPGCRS

[2] = biological target: T2, Arabidopsis ELP4 (Arabidopsis thaliana) (UniProt Q9C778); assay: as above
T2 sequence: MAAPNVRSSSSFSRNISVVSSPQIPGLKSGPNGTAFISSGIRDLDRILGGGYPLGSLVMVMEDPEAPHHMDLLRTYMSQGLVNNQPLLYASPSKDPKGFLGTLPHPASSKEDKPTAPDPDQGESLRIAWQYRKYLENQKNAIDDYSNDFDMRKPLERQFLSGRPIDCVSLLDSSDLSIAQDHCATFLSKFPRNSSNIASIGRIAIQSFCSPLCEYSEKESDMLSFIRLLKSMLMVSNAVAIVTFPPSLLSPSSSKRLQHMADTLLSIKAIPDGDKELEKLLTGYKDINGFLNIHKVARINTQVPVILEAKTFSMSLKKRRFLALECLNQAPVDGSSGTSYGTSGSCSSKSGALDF

- binding [1]: no binding
- binding [2]: no binding
Substance: Arabidopsis ELP1

These are yes or no findings as the source states them, for the method shown.
